Data source: PubChem BioAssay AID602196 (INSERM, 2012)
Assay: 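Genes whose knock-down alters cisplatin killing of lung cancer cells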. System: human A549 lung cancer cells. Reagent: siRNA pair against human genes. Timing: 48 h transfection before cisplatin; time from cisplatin to read-out not stated. Treatment: cisplatin at a dose killing half of control-siRNA cells; exact dose and duration not given. Measurement: 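Cisplatin cell death as a shift from the 50% death seen with control siRNA; siRNAs toxic or growth-blocking alone scored 0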. Scale: two-siRNA summed score (-2 to +2): higher = both siRNAs protect from cisplatin killing; -2 means both sensitise; mean protection from cisplatin (shift in death): higher = protection from cisplatin killing. Hit rule: 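siRNAs harmful alone (LDH or WST-1) get 0; others get +1 for less and -1 for more cisplatin killing; genes are active when the two siRNAs give the same sign, summing to ±2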. Calls: active = both siRNAs shift cisplatin killing the same way; inactive = no consistent shift, or siRNA harmful alone.
The whole screen tested about 23,000 reagents; below is a random part of them. 455 of all reagents (2%) count as active. 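Active includes both protection and sensitisation; some change values fall well beyond the stated -50 to +50 range.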 Further read-outs or replicates are left out here. No sequences are given here. Not given: the amount of reagent.

After knock-down of TTF2 (GeneID 8458), the record shows two-siRNA summed score (-2 to +2) = 0; mean protection from cisplatin (shift in death) (%) = 2.5; inactive.
Silencing of TMEM44 (GeneID 93109) gave: two-siRNA summed score (-2 to +2) = 0; mean protection from cisplatin (shift in death) (%) = 0.2; inactive.
With knock-down of CTAG2 (GeneID 30848), the screen gave two-siRNA summed score (-2 to +2) = 1; mean protection from cisplatin (shift in death) (%) = 20.3; inactive.
Depletion of ATN1 (GeneID 1822) resulted in: two-siRNA summed score (-2 to +2) = 0; mean protection from cisplatin (shift in death) (%) = -6.4; inactive.
PPFIA3 (GeneID 8541) gave two-siRNA summed score (-2 to +2) = 0; mean protection from cisplatin (shift in death) (%) = 14.7; inactive.
Knock-down of HDHD3 (GeneID 81932) resulted in: two-siRNA summed score (-2 to +2) = 0; mean protection from cisplatin (shift in death) (%) = 15.5; inactive.
Against CIMIP4 (GeneID 339669) the deposit lists two-siRNA summed score (-2 to +2) = 0; mean protection from cisplatin (shift in death) (%) = 7.2; inactive.
With knock-down of CCNK (GeneID 8812) the results were two-siRNA summed score (-2 to +2) = 0; mean protection from cisplatin (shift in death) (%) = -7.6; inactive.
Depletion of LOC152118 came out at: two-siRNA summed score (-2 to +2) = 0; mean protection from cisplatin (shift in death) (%) = 8.4; inactive.
For DENND5A (GeneID 23258) the deposit lists two-siRNA summed score (-2 to +2) = 0; mean protection from cisplatin (shift in death) (%) = 9.7; inactive.
For ALDH1B1 (GeneID 219) the deposit lists two-siRNA summed score (-2 to +2) = -1; mean protection from cisplatin (shift in death) (%) = -6.5; inactive.
For GIMAP1 (GeneID 170575), the values are two-siRNA summed score (-2 to +2) = 0; mean protection from cisplatin (shift in death) (%) = 0.9; inactive.
With knock-down of TSR1 (GeneID 55720), the record shows two-siRNA summed score (-2 to +2) = 0; mean protection from cisplatin (shift in death) (%) = 8; inactive.
C1QTNF6 (GeneID 114904) gave two-siRNA summed score (-2 to +2) = 0; mean protection from cisplatin (shift in death) (%) = 14.5; inactive.
For RPS14 (GeneID 6208), the values are two-siRNA summed score (-2 to +2) = 0; mean protection from cisplatin (shift in death) (%) = 5.8; inactive.
With knock-down of SPMIP9 (GeneID 200523) the results were two-siRNA summed score (-2 to +2) = 0; mean protection from cisplatin (shift in death) (%) = 2.9; inactive.
Silencing of GPR107 (GeneID 57720) gave: two-siRNA summed score (-2 to +2) = 0; mean protection from cisplatin (shift in death) (%) = -1.3; inactive.
Knock-down of LOC145780 resulted in: two-siRNA summed score (-2 to +2) = 0; mean protection from cisplatin (shift in death) (%) = 13.3; inactive.
LOC442499 gave two-siRNA summed score (-2 to +2) = 0; mean protection from cisplatin (shift in death) (%) = -0.3; inactive.
Depletion of HOXD9 (GeneID 3235) came out at: two-siRNA summed score (-2 to +2) = -1; mean protection from cisplatin (shift in death) (%) = -15.4; inactive.
With knock-down of KPNA5 (GeneID 3841) the results were two-siRNA summed score (-2 to +2) = 1; mean protection from cisplatin (shift in death) (%) = 13.1; inactive.
For MED13L (GeneID 23389) the deposit lists two-siRNA summed score (-2 to +2) = 0; mean protection from cisplatin (shift in death) (%) = -10; inactive.
Knock-down of MYDGF (GeneID 56005) gave: two-siRNA summed score (-2 to +2) = 0; mean protection from cisplatin (shift in death) (%) = 0.6; inactive.
After knock-down of UGT2A1 (GeneID 10941), the screen gave two-siRNA summed score (-2 to +2) = 0; mean protection from cisplatin (shift in death) (%) = 9; inactive.
Against SLC16A13 (GeneID 201232) the deposit lists two-siRNA summed score (-2 to +2) = 1; mean protection from cisplatin (shift in death) (%) = 22.4; inactive.

Look-ups from the list:
Entry of HDHD3 (GeneID 81932) in “two-siRNA summed score (-2 to +2)”: 0
C1QTNF6 (GeneID 114904), two-siRNA summed score (-2 to +2) = 0

Further records follow.
Silencing of LOC441464 resulted in: two-siRNA summed score (-2 to +2) = 0; mean protection from cisplatin (shift in death) (%) = 13.1; inactive.
Depletion of HIGD2A (GeneID 192286) gave: two-siRNA summed score (-2 to +2) = 0; mean protection from cisplatin (shift in death) (%) = 7.1; inactive.
LEPR (GeneID 3953) scored two-siRNA summed score (-2 to +2) = 0; mean protection from cisplatin (shift in death) (%) = -3.8; inactive.
UQCRH (GeneID 7388) scored two-siRNA summed score (-2 to +2) = 1; mean protection from cisplatin (shift in death) (%) = 4.3; inactive.
TOMM7 (GeneID 54543) showed two-siRNA summed score (-2 to +2) = 0; mean protection from cisplatin (shift in death) (%) = 0.2; inactive.
After knock-down of IFI44L (GeneID 10964) the results were two-siRNA summed score (-2 to +2) = 0; mean protection from cisplatin (shift in death) (%) = 11.9; inactive.
Against GNAT1 (GeneID 2779) the deposit lists two-siRNA summed score (-2 to +2) = 0; mean protection from cisplatin (shift in death) (%) = 11.4; inactive.
Depletion of TRUB2 (GeneID 26995) gave: two-siRNA summed score (-2 to +2) = 0; mean protection from cisplatin (shift in death) (%) = 1.6; inactive.
After knock-down of NSUN7 (GeneID 79730), the screen gave two-siRNA summed score (-2 to +2) = 0; mean protection from cisplatin (shift in death) (%) = 7.4; inactive.
PRDM14 (GeneID 63978) gave two-siRNA summed score (-2 to +2) = 0; mean protection from cisplatin (shift in death) (%) = 6.8; inactive.
Silencing of AMELX (GeneID 265) gave: two-siRNA summed score (-2 to +2) = -1; mean protection from cisplatin (shift in death) (%) = -13.7; inactive.
Against GNS (GeneID 2799), the values are two-siRNA summed score (-2 to +2) = 0; mean protection from cisplatin (shift in death) (%) = -10.6; inactive.
With knock-down of CNTNAP3 (GeneID 79937) the results were two-siRNA summed score (-2 to +2) = -1; mean protection from cisplatin (shift in death) (%) = -14.3; inactive.
For LOC441400, the entry reads two-siRNA summed score (-2 to +2) = 0; mean protection from cisplatin (shift in death) (%) = 2; inactive.
After knock-down of REM2 (GeneID 161253), the screen gave two-siRNA summed score (-2 to +2) = 0; mean protection from cisplatin (shift in death) (%) = 26.9; inactive.
